Measurements from PubChem BioAssay AID220 (DTP/NCI, 2004).
Several values for one entry are separate records, joined by “and”; a condition that tells them apart may be missing. Identical values can stand only once. Inconclusive results are not listed.

Tested on: CD8F1 mice, subcutaneous mammary adenocarcinoma, T/C%
Experiment: NCI In Vivo Anticancer Drug Screen. Data for tumor model Mammary Adenocarcinoma CD8F1 (subcutaneous) in CD8F1
Settings: vehicle: saline, higher = larger tumour
Description: The antitumor activity of compounds was measured in mice bearing transplantable tumors. Survival or tumor size were measured and the results are expressed as the measurement made in the treated group (T) divided by the measurement made in the vehicle treated control group (C). The tumor model used in this assay is Mammary Adenocarcinoma CD8F1 (subcutaneous) in CD8F1

`COc1cc2c(c(OC)c1OC)-c1ccc(OC)c(=O)cc1[C@@H](N)CC2` was tested, and the T/C (endpoint: mean tumor weight (est.), dose: 12.0 mg/kg/injection, schedule: Q07DX003 (ip)) was 67 % of control, the T/C (endpoint: mean tumor weight (est.), dose: 24.0 mg/kg/injection, schedule: Q07DX003 (ip)) was 69 % of control and the T/C (endpoint: mean tumor weight, dose: 3.0 mg/kg/injection, schedule: Q01DX009 (ip)) was 59 % of control. For the same molecule, the T/C (endpoint: mean tumor weight, dose: 6.0 mg/kg/injection, schedule: Q01DX009 (ip)) was 45 % of control, the T/C (endpoint: mean tumor weight, dose: 6.0 mg/kg/injection, schedule: Q07DX005 (ip)) was 727 % of control and the T/C (endpoint: mean tumor weight, dose: 12.0 mg/kg/injection, schedule: Q01DX009 (ip)) was 34 % of control. The T/C (endpoint: mean tumor weight, dose: 12.0 mg/kg/injection, schedule: Q07DX008 (ip)) was 156 % of control, the T/C (endpoint: mean tumor weight, dose: 24.0 mg/kg/injection, schedule: Q07DX005 (ip)) was 335 % of control and 689 % of control and the T/C (endpoint: mean tumor weight, dose: 24.0 mg/kg/injection, schedule: Q07DX008 (ip)) was 45 % of control. For the same molecule, the T/C (endpoint: mean tumor weight, dose: 48.0 mg/kg/injection, schedule: Q07DX005 (ip)) was 359 % of control, the T/C (endpoint: median tumor weight (est.), dose: 5.0 mg/kg/injection, schedule: Q07DX005 (ip)) was 73 % of control and 92 % of control and the T/C (endpoint: median tumor weight (est.), dose: 40.0 mg/kg/injection, schedule: Q07DX005 (ip)) was 17 % of control. The T/C (endpoint: median tumor weight (est.), dose: 80.0 mg/kg/injection, schedule: Q07DX005 (ip)) was 8 % of control.
